Test results as given in US20090203708A1, “NOVEL SUBSTITUTED-1-H-QUINAZOLINE-2,4-DIONE DERIVATIVES, PREPARATION METHOD THEREOF AND PHARMACEUTICAL COMPOSITION CONTAINING THE SAME” (Korea Research Institute of Chemical Technology, priority 2006, published 2009).
At least one structure is not confirmed: it was looked up by name or label, or the drawing left a doubt.

Tested on: lethality
Test: Lethality (LD50) in mice
Assay type: in vivo
Conditions: i.p.

In the case of `COc1ccc(NS(=O)(=O)c2sc3ccc(Cl)cc3c2C)cc1N1CCNCC1` [SB-271046, reference compound], the “Lethal Degrees LD50” value is reported as 123 mg/kg, ip.
